About 1,000 (0.3%) of roughly 330,000 compounds were called active. The shares of active, inactive and inconclusive entries below differ from those in the screen. The call rests on the fitted dose curve; in most records, active means well fitted inhibition curve with a large enough effect; inconclusive means small, poorly fitted or top-dose-only effect; inactive means no such curve, though single readings can be large or run the other way; tested in mouse RAW 264.7 cells. Potencies of inconclusive entries are doubtful fits and often do not repeat.
Assay: qHTS for Inhibitors of Cell Surface uPA Generation; further: nearly all actives have a fitted effect of over 55% in size
Settings: cell surface uPA generation assay; series mostly up to 38.3 µM; activity change, negative = inhibition: at the top concentration
Summary of the method: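 RAW 264.7 cells, 4000/well, given compound (1:5 dilutions, up to 38.3 uM final) and incubated 24 h at 37 C. Blocked uPA-dependent LF entry keeps ATP high; ATPlite luminescence read, 5 s exposure.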
On the % scale 0 is the no-effect control and ±100 the full control effect; potency means the concentration at half of the fitted maximal effect.

Row | SMILES | activity change, negative = inhibition | Potency
1 | COc1ccc(NC(=O)c2ccc(Cl)c(S(=O)(=O)N3CC(C)OC(C)C3)c2)cn1 (stereo not given) | inactive: -6.39% | –
2 | COc1cccc(-c2ccc(SCC(=O)NC3CCCCC3)nn2)c1 | – | inconclusive: 31.6 µM [inhibitor, partial curve, poor fit]
3 | COc1ccccc1Nc1ccc(C(=O)NCc2cccs2)cn1 | inactive: 0.621% | –
4 | Cc1ccc2nc(-c3ccc(N)cc3)sc2c1 | inactive: -15.3% | –
5 | CCN1C(=NCCc2cccs2)N[C@@H](c2cccs2)C(C(=O)OC)=C1C | – | inconclusive: 6.31 µM [inhibitor, partial curve, poor fit]
6 | CCOC(=O)N1C2=NC(C(=O)OC)=C(C(=O)OC)[C@@H]3N(C)c4ccc(OC)cc4[C@]23C[C@H]1C(=O)OC | – | inconclusive: 3.98 µM [inhibitor, partial curve]
7 | Cc1ccc(CS(=O)(=O)c2ncc(Cl)c(C(=O)Nc3nnc(C)s3)n2)cc1 | – | inconclusive: 10 µM [inhibitor, partial curve, poor fit]
8 | CCCN1CCN(C(=O)c2oc3ccccc3c2NC(=O)COc2ccc(OC)cc2)CC1 | – | inconclusive: 10 µM [inhibitor, partial curve, poor fit]
9 | CCNC(=O)c1ccccc1NC(=O)C1CC(=O)N(C(C)C)C1 (stereo not given) | – | inconclusive: 3.16 µM [inhibitor, partial curve, poor fit]
10 | CCC(CO)Oc1cc(NCc2cccc(Cl)c2)c2ncn(C(C)C)c2c1 (stereo not given) | – | inconclusive: 11.2 µM [inhibitor, single point]
11 | O=C(NC1=NCCS1)c1cccc(OC(F)F)c1 | – | inconclusive: 28.2 µM [inhibitor, single point]
12 | COC(=O)c1cc(=O)n(Cc2ccco2)c(=Nc2ccc(F)cc2)s1 | – | inconclusive: 8.91 µM [inhibitor, single point]
13 | CSC1=NCCN1C(=O)COc1ccc2ccccc2c1 | – | inconclusive: 28.2 µM [inhibitor, single point]
14 | O=C(COC(=O)/C=C/C(=O)OCC(=O)Nc1ccccc1F)Nc1ccccc1F | – | inconclusive: 5.62 µM [inhibitor, partial curve, poor fit]
15 | COC(=O)c1cc(=O)n(-c2ccc(F)cc2)c(=Nc2ccc(F)cc2)s1 | – | inconclusive: 5.62 µM [inhibitor, partial curve, poor fit]
16 | Cc1ccc(S(=O)(=O)N2c3ccccc3-c3c(ssc3=S)C2(C)C)cc1 | – | inconclusive: 14.1 µM [inhibitor, single point]
17 | CN(C)c1nc(N(C)C)nc(N(C#N)Cc2ccc(Cl)cc2)n1 | – | inconclusive: 3.16 µM [inhibitor, partial curve, poor fit]
18 | O=C(N/N=C/c1c(-c2ccccc2)[nH]c2ccccc12)c1cccnc1 | – | inconclusive: 10 µM [inhibitor, single point]
19 | O=C1c2ccc(Cl)cc2S(=O)(=O)c2cccc(C(=O)N3CCC(Cc4ccccc4)CC3)c21 | – | inconclusive: 11.2 µM [inhibitor, single point]
20 | O=C(O)c1cccc(NC(=S)N/N=C/c2ccccn2)c1 | – | inconclusive: 12.6 µM [inhibitor, partial curve, poor fit]
21 | COC(=O)/C=C/c1ccccc1S(=O)(=O)N(Cc1ccccc1)Cc1ccco1 | – | inconclusive: 2.24 µM [inhibitor, full curve, poor fit]
22 | CC(CNC(=O)c1cccs1)c1ccc([N+](=O)[O-])cc1 (stereo not given) | – | inconclusive: 3.98 µM [inhibitor, partial curve, poor fit]

Row | SMILES | activity change, negative = inhibition | Potency
23 | O=C(Nc1cccc(-c2nnc(-c3ccccc3)o2)c1)c1ccc(Br)o1 | – | inconclusive: 10 µM [inhibitor, single point]
24 | O=C(N/N=C/C=C/c1ccc2c(c1)OCO2)C(O)c1ccccc1 (stereo not given) | inactive: 7.94% | –
25 | COC(=O)c1ccccc1NC(=O)CSc1nc(-c2ccco2)cc(C(F)(F)F)n1 | – | inconclusive: 3.16 µM [inhibitor, full curve, poor fit]
26 | CCn1c(O)c(N=NC(=O)CNC(=O)c2ccco2)c2ccccc21 | – | inconclusive: 22.4 µM [inhibitor, single point]
27 | C/C=C(/C)C(=O)O[C@@H]1c2c(ccc3ccc(=O)oc23)OC(C)(C)[C@@H]1OC(=O)/C(C)=C\C | – | inconclusive: 22.4 µM [inhibitor, single point]
28 | COc1cc(NC(=S)NC(=O)C(C)C)ccc1NC(=O)c1cc2ccccc2o1 | inactive: -4.48% | –
29 | Cc1cc(C)c(OCCn2ccnc2)c(C)c1 | – | inconclusive: 10 µM [inhibitor, single point]
30 | CCn1c(CCNC(=O)c2ccc(C)cc2)nnc1SCc1ccc(Cl)c(Cl)c1 | inactive: -0.628% | –
31 | CC(NC(=O)COC(=O)COc1ccc(Cl)cc1)c1ccccc1 (stereo not given) | inactive: 5.17% | –
32 | COc1ccc(/C(C)=N/Nc2nc(C)c(C(C)=O)s2)cc1 | inactive: -19% | –
33 | O=C(O)CCCCCNC(=O)Cn1nnc2ccccc2c1=O | inactive: 1.64% | –
34 | Cc1nc2ncc(Br)cc2[nH]1 | inactive: -7.03% | –
35 | C=CCNC(=S)NCCCCC1NC(=S)N(CC=C)C1=O (stereo not given) | inactive: -1.26% | –
36 | O=c1cc(NC2CCCCC2)c2ccccc2o1 | – | inconclusive: 5.62 µM [inhibitor, single point]
37 | Clc1cccc(CN2C3=NCCCN3c3ccccc32)c1 | – | inconclusive: 11.2 µM [inhibitor, single point]
38 | O=S1(=O)Nc2c(ccc3cccnc23)-c2ccccc21 | – | inconclusive: 1 µM [inhibitor, single point]
39 | COc1ccc(CNC[C@@H](CCCCN(C)Cc2ccc(OC)cc2)N2C[C@H](c3ccccc3)N(CCc3ccc(Cl)c(Cl)c3)C(=O)C2=O)cc1 | – | inconclusive: 28.2 µM [inhibitor, single point]
40 | CC(C)N(C(=O)[C@H]1C[C@H](CC(=O)NCCC2=CCCCC2)C(=O)N2CCc3c([nH]c4cc(-c5ccco5)ccc34)[C@]12C)C(C)C | – | inconclusive: 28.2 µM [inhibitor, single point]
41 | COc1ccc(CC(=O)Oc2ccc(F)cc2)cc1 | – | inconclusive: 0.355 µM [inhibitor, full curve, poor fit]
42 | C[C@@H]1C=CC(=O)O[C@@H]1c1ccc(Cl)cc1 | – | inconclusive: 1.12 µM [inhibitor, full curve, poor fit]
43 | COC(=O)c1ccc2nc(Nc3nc4ccc(F)cc4s3)sc2c1 | inactive: 1.09% | –
44 | Cc1cccc(C)c1-c1ccc(CN2C(CC(C)C)C(=O)N(Cc3cn(CCO)nn3)CCS2(=O)=O)cc1 (stereo not given) | – | inconclusive: 20 µM [inhibitor, single point]

An excerpt of these results, as labelled records.
COC(=O)c1cc(=O)n(-c2ccc(F)cc2)c(=Nc2ccc(F)cc2)s1
  Potency: inconclusive: 5.62 µM [inhibitor, partial curve, poor fit]
Cc1ccc(S(=O)(=O)N2c3ccccc3-c3c(ssc3=S)C2(C)C)cc1
  Potency: inconclusive: 14.1 µM [inhibitor, single point]

Next structures

Row | SMILES | activity change, negative = inhibition | Potency
45 | Cc1noc(C)c1S(=O)(=O)N(CC(=O)NC1CCCC1)c1ccc(C(C)C)cc1 | – | inconclusive: 12.6 µM [inhibitor, partial curve, poor fit]
46 | CCCCC[n+]1ccn(C2=C([O-])c3ccccc3C(=O)/C2=N\S(=O)(=O)c2ccc(Br)cc2)c1 | – | inconclusive: 2.82 µM [inhibitor, partial curve, poor fit]
47 | CC1(C)Oc2ccc3ccc(=O)oc3c2/C(=C/NNC(N)=O)C1=O | – | inconclusive: 28.2 µM [inhibitor, single point]
48 | O=c1[nH]c(Nc2nc3ccccc3o2)nc2c1CCCC2 | – | inconclusive: 0.447 µM [inhibitor, full curve, poor fit]
49 | COCCCN=C1NN=C(c2cc(C)n(-c3ccccc3F)c2C)CS1 | – | active: 6.31 µM
50 | O=[N+]([O-])c1cncc([N+](=O)[O-])c1Nc1cccc(O)c1 | – | active: 10 µM
51 | CN(C(=O)c1ccc(NC(=O)Cc2ccc(NC(=O)C3CCN(C(=O)CCc4ccccc4)CC3)cc2)cc1)C1CCCC1 | inactive: -6.11% | –
52 | CCN(CC)S(=O)(=O)c1cc(C(=O)Nc2cc(S(=O)(=O)N3CCOCC3)ccc2N2CCN(C)CC2)ccc1C | – | inconclusive: 10 µM [inhibitor, partial curve]
53 | COc1ccc(-c2[nH]c3ccccc3c2SCCNC(=O)c2ccccc2)cc1 | – | inconclusive: 12.6 µM [inhibitor, single point]
54 | O=C(N/N=C/c1ccccc1O)C1SCCCS1 | – | inconclusive: 12.6 µM [inhibitor, single point]
55 | O=[N+]([O-])c1cc([N+](=O)[O-])c(Oc2cncc(Cl)c2)cc1NC1CCCCCCC1 | – | inconclusive: 1.26 µM [inhibitor, single point]
56 | COCC(=O)N(c1ccccc1)C(C)C(=O)OC (stereo not given) | inactive: 3.91% | –
57 | Cc1oc(-c2ccccc2Cl)nc1CS(=O)CC(=O)N1CCN(c2ccccc2)CC1 (stereo not given) | – | inconclusive: 2.24 µM [inhibitor, partial curve, poor fit]
58 | O=C(CCC(=O)N1CCN(S(=O)(=O)c2ccc3ccccc3c2)CC1)Nc1cc(Cl)cc(Cl)c1 | – | inconclusive: 28.2 µM [inhibitor, single point]
59 | O=C(CSc1nc2ccccc2s1)N/N=C/c1cc([N+](=O)[O-])ccc1O | inactive: -3.35% | –
60 | O=C(CNS(=O)(=O)c1c(Cl)cccc1Cl)N1CCCCCC1 | – | inconclusive: 11.2 µM [inhibitor, partial curve, poor fit]
61 | CCCCCCOc1ccc(/C(C)=N/NC2=NCCN2)cc1[N+](=O)[O-] | – | inconclusive: 12.6 µM [inhibitor, single point]
62 | Cc1nnc(NC(=O)c2cccc(NC(=O)C(C)C)c2)s1 | inactive: -0.998% | –
63 | COc1ccc(/C(CC2OC(=O)c3ccccc32)=N\NC(N)=O)cc1 (stereo not given) | inactive: 0.666% | –
64 | O=S(=O)(NCc1ccccc1)c1ccc(-c2cnc(C3CC3)o2)cc1 | – | active: 5.62 µM
65 | CCN(CC)CCCNC(=O)C1CCC(CNS(=O)(=O)c2c(C)cc(C)cc2C)CC1 (stereo not given) | – | inconclusive: 0.501 µM [inhibitor, full curve, poor fit]

Source: PubChem BioAssay AID540303 (National Center for Advancing Translational Sciences (NCATS), 2011)
